B1: β96T-G: B8.2.4 TCR point mutant, Vβ-CDR3 96T to G (protein)
TCR alpha: AQKITQTQPGMFVQEKEAVTLDCTYDTSDPSYGLFWYKQPSSGEMIFLIYQGSYDQQNATEGRYSLNFQKARKSANLVISASQLGDSAMYFCAMRERTGTASKLTFGTGTRLQVTLDIQNPEPAVYQLKDPRSQDSTLCLFTDFDSQINVPKTMESGTFITDKTVLDMKAMDSKSNGAIAWSNQTSFTCQDIFKETNATYPSSDVPCDATLTEKSFETDMNLNFQNLSVMGLRILLLKVAGFNLLMTLRLWSS
TCR beta: DVKVTQSSRYLVKRTGEKVFLECVQDMDHENMFWYRQDPGLGLRLIYFSYDVKMKEKGDIPEGYSVSREKKERFSLILESASTNQTSMYLCASSQGVPPQHFGDGTRLSILEDLRNVTPPKVSLFEPSKAEIANKQKATLVCLARGFFPDHVELSWWVNGKEVHSGVSTDPQAYKESNYSYCLSSRLRVSATFWHNPRNHFRCQVQFHGLSEEDKWPEGSPKPVTQNISAEAWGRADCGITSASYQQGVLSATILYEILLGKATLYAVLVSTLVVMAMVKRKNS
B2: β96T-L: B8.2.4 TCR point mutant, Vβ-CDR3 96T to L (protein)
TCR alpha: AQKITQTQPGMFVQEKEAVTLDCTYDTSDPSYGLFWYKQPSSGEMIFLIYQGSYDQQNATEGRYSLNFQKARKSANLVISASQLGDSAMYFCAMRERTGTASKLTFGTGTRLQVTLDIQNPEPAVYQLKDPRSQDSTLCLFTDFDSQINVPKTMESGTFITDKTVLDMKAMDSKSNGAIAWSNQTSFTCQDIFKETNATYPSSDVPCDATLTEKSFETDMNLNFQNLSVMGLRILLLKVAGFNLLMTLRLWSS
TCR beta: DVKVTQSSRYLVKRTGEKVFLECVQDMDHENMFWYRQDPGLGLRLIYFSYDVKMKEKGDIPEGYSVSREKKERFSLILESASTNQTSMYLCASSQLVPPQHFGDGTRLSILEDLRNVTPPKVSLFEPSKAEIANKQKATLVCLARGFFPDHVELSWWVNGKEVHSGVSTDPQAYKESNYSYCLSSRLRVSATFWHNPRNHFRCQVQFHGLSEEDKWPEGSPKPVTQNISAEAWGRADCGITSASYQQGVLSATILYEILLGKATLYAVLVSTLVVMAMVKRKNS
B3: β96T-R: B8.2.4 TCR point mutant, Vβ-CDR3 96T to R (protein)
TCR alpha: AQKITQTQPGMFVQEKEAVTLDCTYDTSDPSYGLFWYKQPSSGEMIFLIYQGSYDQQNATEGRYSLNFQKARKSANLVISASQLGDSAMYFCAMRERTGTASKLTFGTGTRLQVTLDIQNPEPAVYQLKDPRSQDSTLCLFTDFDSQINVPKTMESGTFITDKTVLDMKAMDSKSNGAIAWSNQTSFTCQDIFKETNATYPSSDVPCDATLTEKSFETDMNLNFQNLSVMGLRILLLKVAGFNLLMTLRLWSS
TCR beta: DVKVTQSSRYLVKRTGEKVFLECVQDMDHENMFWYRQDPGLGLRLIYFSYDVKMKEKGDIPEGYSVSREKKERFSLILESASTNQTSMYLCASSQRVPPQHFGDGTRLSILEDLRNVTPPKVSLFEPSKAEIANKQKATLVCLARGFFPDHVELSWWVNGKEVHSGVSTDPQAYKESNYSYCLSSRLRVSATFWHNPRNHFRCQVQFHGLSEEDKWPEGSPKPVTQNISAEAWGRADCGITSASYQQGVLSATILYEILLGKATLYAVLVSTLVVMAMVKRKNS
B4: β96T-M: B8.2.4 TCR point mutant, Vβ-CDR3 96T to M (protein)
TCR alpha: AQKITQTQPGMFVQEKEAVTLDCTYDTSDPSYGLFWYKQPSSGEMIFLIYQGSYDQQNATEGRYSLNFQKARKSANLVISASQLGDSAMYFCAMRERTGTASKLTFGTGTRLQVTLDIQNPEPAVYQLKDPRSQDSTLCLFTDFDSQINVPKTMESGTFITDKTVLDMKAMDSKSNGAIAWSNQTSFTCQDIFKETNATYPSSDVPCDATLTEKSFETDMNLNFQNLSVMGLRILLLKVAGFNLLMTLRLWSS
TCR beta: DVKVTQSSRYLVKRTGEKVFLECVQDMDHENMFWYRQDPGLGLRLIYFSYDVKMKEKGDIPEGYSVSREKKERFSLILESASTNQTSMYLCASSQMVPPQHFGDGTRLSILEDLRNVTPPKVSLFEPSKAEIANKQKATLVCLARGFFPDHVELSWWVNGKEVHSGVSTDPQAYKESNYSYCLSSRLRVSATFWHNPRNHFRCQVQFHGLSEEDKWPEGSPKPVTQNISAEAWGRADCGITSASYQQGVLSATILYEILLGKATLYAVLVSTLVVMAMVKRKNS
B5: β96T-H: B8.2.4 TCR point mutant, Vβ-CDR3 96T to H; CDR3β ASSQHVPPQH (protein)
TCR alpha: AQKITQTQPGMFVQEKEAVTLDCTYDTSDPSYGLFWYKQPSSGEMIFLIYQGSYDQQNATEGRYSLNFQKARKSANLVISASQLGDSAMYFCAMRERTGTASKLTFGTGTRLQVTLDIQNPEPAVYQLKDPRSQDSTLCLFTDFDSQINVPKTMESGTFITDKTVLDMKAMDSKSNGAIAWSNQTSFTCQDIFKETNATYPSSDVPCDATLTEKSFETDMNLNFQNLSVMGLRILLLKVAGFNLLMTLRLWSS
TCR beta: DVKVTQSSRYLVKRTGEKVFLECVQDMDHENMFWYRQDPGLGLRLIYFSYDVKMKEKGDIPEGYSVSREKKERFSLILESASTNQTSMYLCASSQHVPPQHFGDGTRLSILEDLRNVTPPKVSLFEPSKAEIANKQKATLVCLARGFFPDHVELSWWVNGKEVHSGVSTDPQAYKESNYSYCLSSRLRVSATFWHNPRNHFRCQVQFHGLSEEDKWPEGSPKPVTQNISAEAWGRADCGITSASYQQGVLSATILYEILLGKATLYAVLVSTLVVMAMVKRKNS
B6: β96T-P: B8.2.4 TCR point mutant, Vβ-CDR3 96T to P (protein)
TCR alpha: AQKITQTQPGMFVQEKEAVTLDCTYDTSDPSYGLFWYKQPSSGEMIFLIYQGSYDQQNATEGRYSLNFQKARKSANLVISASQLGDSAMYFCAMRERTGTASKLTFGTGTRLQVTLDIQNPEPAVYQLKDPRSQDSTLCLFTDFDSQINVPKTMESGTFITDKTVLDMKAMDSKSNGAIAWSNQTSFTCQDIFKETNATYPSSDVPCDATLTEKSFETDMNLNFQNLSVMGLRILLLKVAGFNLLMTLRLWSS
TCR beta: DVKVTQSSRYLVKRTGEKVFLECVQDMDHENMFWYRQDPGLGLRLIYFSYDVKMKEKGDIPEGYSVSREKKERFSLILESASTNQTSMYLCASSQPVPPQHFGDGTRLSILEDLRNVTPPKVSLFEPSKAEIANKQKATLVCLARGFFPDHVELSWWVNGKEVHSGVSTDPQAYKESNYSYCLSSRLRVSATFWHNPRNHFRCQVQFHGLSEEDKWPEGSPKPVTQNISAEAWGRADCGITSASYQQGVLSATILYEILLGKATLYAVLVSTLVVMAMVKRKNS
B7: β96T-I: B8.2.4 TCR point mutant, Vβ-CDR3 96T to I (protein)
TCR alpha: AQKITQTQPGMFVQEKEAVTLDCTYDTSDPSYGLFWYKQPSSGEMIFLIYQGSYDQQNATEGRYSLNFQKARKSANLVISASQLGDSAMYFCAMRERTGTASKLTFGTGTRLQVTLDIQNPEPAVYQLKDPRSQDSTLCLFTDFDSQINVPKTMESGTFITDKTVLDMKAMDSKSNGAIAWSNQTSFTCQDIFKETNATYPSSDVPCDATLTEKSFETDMNLNFQNLSVMGLRILLLKVAGFNLLMTLRLWSS
TCR beta: DVKVTQSSRYLVKRTGEKVFLECVQDMDHENMFWYRQDPGLGLRLIYFSYDVKMKEKGDIPEGYSVSREKKERFSLILESASTNQTSMYLCASSQIVPPQHFGDGTRLSILEDLRNVTPPKVSLFEPSKAEIANKQKATLVCLARGFFPDHVELSWWVNGKEVHSGVSTDPQAYKESNYSYCLSSRLRVSATFWHNPRNHFRCQVQFHGLSEEDKWPEGSPKPVTQNISAEAWGRADCGITSASYQQGVLSATILYEILLGKATLYAVLVSTLVVMAMVKRKNS
B8: β96T-N: B8.2.4 TCR point mutant, Vβ-CDR3 96T to N; CDR3β ASSQNVPPQH (protein)
TCR alpha: AQKITQTQPGMFVQEKEAVTLDCTYDTSDPSYGLFWYKQPSSGEMIFLIYQGSYDQQNATEGRYSLNFQKARKSANLVISASQLGDSAMYFCAMRERTGTASKLTFGTGTRLQVTLDIQNPEPAVYQLKDPRSQDSTLCLFTDFDSQINVPKTMESGTFITDKTVLDMKAMDSKSNGAIAWSNQTSFTCQDIFKETNATYPSSDVPCDATLTEKSFETDMNLNFQNLSVMGLRILLLKVAGFNLLMTLRLWSS
TCR beta: DVKVTQSSRYLVKRTGEKVFLECVQDMDHENMFWYRQDPGLGLRLIYFSYDVKMKEKGDIPEGYSVSREKKERFSLILESASTNQTSMYLCASSQNVPPQHFGDGTRLSILEDLRNVTPPKVSLFEPSKAEIANKQKATLVCLARGFFPDHVELSWWVNGKEVHSGVSTDPQAYKESNYSYCLSSRLRVSATFWHNPRNHFRCQVQFHGLSEEDKWPEGSPKPVTQNISAEAWGRADCGITSASYQQGVLSATILYEILLGKATLYAVLVSTLVVMAMVKRKNS
B9: β96T-Q: B8.2.4 TCR point mutant, Vβ-CDR3 96T to Q (protein)
TCR alpha: AQKITQTQPGMFVQEKEAVTLDCTYDTSDPSYGLFWYKQPSSGEMIFLIYQGSYDQQNATEGRYSLNFQKARKSANLVISASQLGDSAMYFCAMRERTGTASKLTFGTGTRLQVTLDIQNPEPAVYQLKDPRSQDSTLCLFTDFDSQINVPKTMESGTFITDKTVLDMKAMDSKSNGAIAWSNQTSFTCQDIFKETNATYPSSDVPCDATLTEKSFETDMNLNFQNLSVMGLRILLLKVAGFNLLMTLRLWSS
TCR beta: DVKVTQSSRYLVKRTGEKVFLECVQDMDHENMFWYRQDPGLGLRLIYFSYDVKMKEKGDIPEGYSVSREKKERFSLILESASTNQTSMYLCASSQQVPPQHFGDGTRLSILEDLRNVTPPKVSLFEPSKAEIANKQKATLVCLARGFFPDHVELSWWVNGKEVHSGVSTDPQAYKESNYSYCLSSRLRVSATFWHNPRNHFRCQVQFHGLSEEDKWPEGSPKPVTQNISAEAWGRADCGITSASYQQGVLSATILYEILLGKATLYAVLVSTLVVMAMVKRKNS
B10: β96T-K: B8.2.4 TCR point mutant, Vβ-CDR3 96T to K; CDR3β ASSQKVPPQH (protein)
TCR alpha: AQKITQTQPGMFVQEKEAVTLDCTYDTSDPSYGLFWYKQPSSGEMIFLIYQGSYDQQNATEGRYSLNFQKARKSANLVISASQLGDSAMYFCAMRERTGTASKLTFGTGTRLQVTLDIQNPEPAVYQLKDPRSQDSTLCLFTDFDSQINVPKTMESGTFITDKTVLDMKAMDSKSNGAIAWSNQTSFTCQDIFKETNATYPSSDVPCDATLTEKSFETDMNLNFQNLSVMGLRILLLKVAGFNLLMTLRLWSS
TCR beta: DVKVTQSSRYLVKRTGEKVFLECVQDMDHENMFWYRQDPGLGLRLIYFSYDVKMKEKGDIPEGYSVSREKKERFSLILESASTNQTSMYLCASSQKVPPQHFGDGTRLSILEDLRNVTPPKVSLFEPSKAEIANKQKATLVCLARGFFPDHVELSWWVNGKEVHSGVSTDPQAYKESNYSYCLSSRLRVSATFWHNPRNHFRCQVQFHGLSEEDKWPEGSPKPVTQNISAEAWGRADCGITSASYQQGVLSATILYEILLGKATLYAVLVSTLVVMAMVKRKNS

The molecules below were run on murine TCRβ constant region (assay: mTCRβ expression detection on Jurkat-NFAT-Luc cells). Details: TCR mutant transduced Jurkat-NFAT-Luc cells.
Type: cell-based

**Q.** B1 was tested. Which mTCRβ % did it give?
**A.** 55.3%

**Q.** Which mTCRβ % does the source give for B2 here?
**A.** 73.1%

**Q.** Which mTCRβ % does the source give for B3 here?
**A.** 69.2%

**Q.** With B4 as the molecule, how does the mTCRβ % read?
**A.** 67.9%

**Q.** With B5 as the molecule, how does the mTCRβ % read?
**A.** 76.2%

**Q.** B6 was tested. Which mTCRβ % did it give?
**A.** 46.6%

**Q.** How did the mTCRβ % turn out when B7 was run?
**A.** 64.6%

**Q.** How did the mTCRβ % turn out when B8 was run?
**A.** 74.1%

**Q.** B9 was tested. Which mTCRβ % did it give?
**A.** 81.5%

**Q.** Which mTCRβ % does the source give for B10 here?
**A.** 72%

From patent US20240123070A1, “EPITOPE PEPTIDE OF RAS G13D MUTANT AND T CELL RECEPTOR RECOGNIZING RAS G13D MUTANT” (SHANGHAI GENBASE BIOTECHNOLOGY CO., LTD., priority 2021, published 2024)
